No constants are given. Whether binding was seen depends on the method and setting. In cells and extracts the contact can be indirect. Some results given as binding are weak or reduced against the parent protein; the word gives no strength. One block for each substance: values may come before it.
Experiments:
Assay in all cases: co-IP
[1] = target: endogenous LCN2 (human (endogenous in LOVO)) (UniProt P80188)
[2] = target: LCN2-Flag (UniProt P80188)
[3] = target: EGFR-Flag (UniProt P00533)

The chains behind the UniProt entries cited, without tags or fusion partners. Residues count along the entry.
UniProt P80188, residues 21-198: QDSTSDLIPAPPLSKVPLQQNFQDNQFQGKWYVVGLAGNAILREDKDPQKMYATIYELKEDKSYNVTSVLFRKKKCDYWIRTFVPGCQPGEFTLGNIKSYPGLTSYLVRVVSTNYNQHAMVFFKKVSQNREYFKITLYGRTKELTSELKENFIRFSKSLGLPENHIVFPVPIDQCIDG

binding [1]: binds
Substance: endogenous EGFR (from UniProt P00533 25-1210) (receptor)

binding [2]: binds
Substance: EGFR-Flag (from UniProt P00533 25-1210) (receptor)

binding [3]: binds
Substance: LCN2-Flag (from UniProt P80188 21-198)
